{"source": "patent US20170050945A1", "about": "“COMPOSITIONS AND METHODS FOR THE TREATMENT OF SARCOIDOSIS” (INSMED INCORPORATED, priority 2015, published 2017)", "system": "LPS-stimulated TNF-α production in the lungs", "assay": "Inhibition of LPS-stimulated TNF-α production in the lungs of C57BL/6 mice (bronchoalveolar lavage fluid, TNF ELISA)", "type": "in vivo", "details": "inhaled, then 1 mg/kg LPS intratracheal, lavage fluid 4 h after LPS, vs PBS", "note": "At least one structure is not confirmed: it was looked up by name or label, or the drawing left a doubt."}
{"smiles": "COc1c(C)c2c(c(O)c1C/C=C(\\C)CCC(=O)O)C(=O)OC2", "note": "[mycophenolate sodium]", "values": [{"measurement": "LPS-stimulated TNF production in the lungs", "value": "inhibits LPS-stimulated TNF production"}]}
